The results in this text go back to paper PMC6890807.

For the test, the target named is T1, His6-ZEB1 (full-length rat ZEB1 in pcDNA4/HisMaxB) (rat) (UniProt Q62947).
T1 sequence: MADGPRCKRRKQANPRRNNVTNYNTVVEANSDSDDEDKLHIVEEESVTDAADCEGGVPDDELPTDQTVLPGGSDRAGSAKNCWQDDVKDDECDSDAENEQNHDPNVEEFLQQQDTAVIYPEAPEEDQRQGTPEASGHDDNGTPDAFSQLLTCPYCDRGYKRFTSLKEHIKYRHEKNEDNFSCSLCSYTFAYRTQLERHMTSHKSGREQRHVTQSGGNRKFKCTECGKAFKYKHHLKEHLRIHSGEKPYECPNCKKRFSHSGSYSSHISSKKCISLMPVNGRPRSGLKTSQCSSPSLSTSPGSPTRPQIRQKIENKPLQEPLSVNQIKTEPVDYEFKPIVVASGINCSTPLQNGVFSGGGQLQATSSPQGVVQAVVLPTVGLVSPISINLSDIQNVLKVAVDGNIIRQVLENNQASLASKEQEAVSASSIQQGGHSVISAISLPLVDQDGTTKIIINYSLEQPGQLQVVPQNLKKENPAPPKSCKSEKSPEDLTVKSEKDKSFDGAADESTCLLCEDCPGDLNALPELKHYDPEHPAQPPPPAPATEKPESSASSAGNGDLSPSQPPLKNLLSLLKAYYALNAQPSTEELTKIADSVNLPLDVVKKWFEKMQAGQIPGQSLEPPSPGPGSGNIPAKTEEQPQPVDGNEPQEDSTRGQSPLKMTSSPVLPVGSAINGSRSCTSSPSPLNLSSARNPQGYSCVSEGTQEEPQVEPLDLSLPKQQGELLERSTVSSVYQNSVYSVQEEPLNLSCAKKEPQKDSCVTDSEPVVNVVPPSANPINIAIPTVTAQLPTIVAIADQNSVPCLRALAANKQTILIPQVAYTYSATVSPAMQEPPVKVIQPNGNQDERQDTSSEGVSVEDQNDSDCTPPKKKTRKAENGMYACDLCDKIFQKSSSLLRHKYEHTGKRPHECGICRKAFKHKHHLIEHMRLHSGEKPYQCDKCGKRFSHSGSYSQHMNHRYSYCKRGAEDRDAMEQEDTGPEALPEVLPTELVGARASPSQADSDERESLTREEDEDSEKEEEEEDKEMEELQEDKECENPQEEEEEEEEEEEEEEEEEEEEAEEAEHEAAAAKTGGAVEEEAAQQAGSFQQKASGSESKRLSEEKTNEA
The test is described as follows: pull-down; His6-ZEB1 and untagged PKCα co-transfected in HEK-293T for 48 h; cells pretreated with PMA 10 nM for 15 min; Ni-NTA agarose, non-denaturing conditions; Western blot of the eluate. (In general: A western blot detects proteins with antibodies after separation by electrophoresis.)

These are yes or no findings as the source states them, for the method shown. Binding seen in cells or lysates may run through a third protein. Some entries that bind do so weakly or less than the wild type. Tags and fused reporters may be left off the sequences shown.

For “PKCα (untagged) (from UniProt P17252 1-672) (enzyme)”, the binding result is given as “binds”.
